Measured values published in US20240317867A1.
These are yes or no findings as the source states them, for the method shown. For some of these results: In cells and extracts the contact can be indirect. Some entries that bind do so weakly or less than the wild type.

What was measured:
[1] = target: T1, IGFR-like receptor 1 (endogenous protein of mouse Min6 insulinoma cells) (mouse) (UniProt A2AFS3); assay: co-immunostaining and co-immunoprecipitation in Min6 cells
T1 sequence (looked up): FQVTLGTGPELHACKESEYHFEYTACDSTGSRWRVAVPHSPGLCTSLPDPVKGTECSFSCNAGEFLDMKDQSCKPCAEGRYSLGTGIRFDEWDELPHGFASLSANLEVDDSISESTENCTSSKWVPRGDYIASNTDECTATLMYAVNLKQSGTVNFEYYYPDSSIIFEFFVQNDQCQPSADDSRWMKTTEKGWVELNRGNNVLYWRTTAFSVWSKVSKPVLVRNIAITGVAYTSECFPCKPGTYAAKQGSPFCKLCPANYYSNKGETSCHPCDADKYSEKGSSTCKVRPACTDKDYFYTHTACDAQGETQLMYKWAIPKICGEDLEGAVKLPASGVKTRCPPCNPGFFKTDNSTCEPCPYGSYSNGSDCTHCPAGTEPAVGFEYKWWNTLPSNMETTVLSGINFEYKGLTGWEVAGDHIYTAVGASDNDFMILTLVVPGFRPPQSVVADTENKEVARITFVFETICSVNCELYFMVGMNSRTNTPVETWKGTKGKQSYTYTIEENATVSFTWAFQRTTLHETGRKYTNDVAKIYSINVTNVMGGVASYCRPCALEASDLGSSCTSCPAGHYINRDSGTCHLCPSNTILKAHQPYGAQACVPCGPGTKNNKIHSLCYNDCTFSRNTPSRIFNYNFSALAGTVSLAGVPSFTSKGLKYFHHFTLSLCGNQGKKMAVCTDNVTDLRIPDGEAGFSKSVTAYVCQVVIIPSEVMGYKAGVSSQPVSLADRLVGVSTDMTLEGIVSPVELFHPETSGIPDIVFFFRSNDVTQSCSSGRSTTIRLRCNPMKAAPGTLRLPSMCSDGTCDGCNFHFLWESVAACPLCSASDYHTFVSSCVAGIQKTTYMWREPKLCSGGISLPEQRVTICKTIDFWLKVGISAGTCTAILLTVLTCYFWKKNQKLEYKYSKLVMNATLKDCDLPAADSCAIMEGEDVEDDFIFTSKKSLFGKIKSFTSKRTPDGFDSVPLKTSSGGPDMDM

[2] = target: T1, IGFR-like receptor 1 (endogenous protein of mouse Min6 insulinoma cells) (mouse); assay: co-immunoprecipitation from Min6 lysate with 36D7 (anti-IGFR-I1), and the reverse with 28G11 (anti-IGFR-I2); Western blot
[3] = target: T1, IGFR-like receptor 1 (endogenous protein of mouse Min6 insulinoma cells) (mouse); assay: reciprocal co-immunoprecipitation from Min6 lysate (anti-IGFR-I1 and anti-IGFR-I2 antibodies, not named), Western blot
[4] = target: T1, IGFR-like receptor 1 (endogenous protein of mouse Min6 insulinoma cells) (mouse); assay: co-immunostaining in Min6 cells (co-localization; the filing counts strong co-localization as binding)

- binding [1]: binds
- binding [2]: binds
- binding [3]: binds
- binding [4]: binds
B1: IGFR-like receptor 2 (endogenous protein of mouse Min6 insulinoma cells) (receptor, UniProt Q3UZV7 48-1028, looked up)
chain: GDSSSSGRPLPACQEKDYHFEYTECDSTGSRWRVAIPNSAVDCSGLPDPVKGKECTFSCASGEYLEMKNQVCSKCVEGTYSLGSGIKFDEWDELPAGFSNVATFMDTVVGPSDSRPDGCNNSSWLPRGNYIESNRDDCTVSLIYAVHLKKSGYVFFEYQYVDNNIFFEFFIQNDQCQEMDATTDKWVKLTDNGEWGSHSVMLKSGTNILYWRTTGILMGSKAVKPVLVKNITIEGVAYTSECFPCKPGTFSNKPGSFNCQMCPRNTYSEKGAKECIRCKEDSQFSEEGASECVDRPPCTTKDYFQIHTPCDEEGKTQIMYKWIEPKICREDLTDAIRLPPSGEKKDCPPCNPGFYNNGSSSCHPCPPGTFSDGTKECKSCPAGTEPALGFEYKWWNVLPANMKTSCFNVGNSKCDGMNGWEVAGDHIRSGAGGSDNDYLILNLHIPGFKPPTSMTGATGSELGRITFVFETLCSADCVLYFMVDINRKSTNVVESWGGTKEKQAYTHVIFKNATFTFTWAFQRTNQGQDNRRFINDVVKIYSITATNAVDGVAASCRACALGSEQSASSCVPCPPGHYIEKETNQCKECPADTYLSIHQVYGKEACIPCGPGSKSTQDHSLCYSDCFFYHEKENQTLHYDFRNLSSVGSLMNGPSFTSKGTKYFHFFNISLCGHEGRKMALCTNNISDFTVKEMVTGSDDYTNLVGAFVCQSTIIPSESKGFRAALSSQSIILADMFLGVTVDTALQNVNIKEDMFPVSPSQVPDVHFFYKSSTATTSCINGRSTAVKMRCNPMRPGAGVISVPSKCPAGTCDGCTFYFLWESAEACPLCTEHDFHEIEGACKRGLQEILYVWNEPKWCIKGISLPEKKLSTCETVDFWLKVGAGVGAFTAVLLVALTCYFWKKNQKLEYKYSKLVMTTNSKECELPAADSCAIMEGEDNEEDVVYSNKQSLLGKLKSLATKEKDDHFESVQLKSSRCPNI
